Assay [1] deals with T1, F-box (FBX) protein At1g30790, BiFC fusion (Arabidopsis thaliana) (UniProt Q9SY20).
T1 sequence: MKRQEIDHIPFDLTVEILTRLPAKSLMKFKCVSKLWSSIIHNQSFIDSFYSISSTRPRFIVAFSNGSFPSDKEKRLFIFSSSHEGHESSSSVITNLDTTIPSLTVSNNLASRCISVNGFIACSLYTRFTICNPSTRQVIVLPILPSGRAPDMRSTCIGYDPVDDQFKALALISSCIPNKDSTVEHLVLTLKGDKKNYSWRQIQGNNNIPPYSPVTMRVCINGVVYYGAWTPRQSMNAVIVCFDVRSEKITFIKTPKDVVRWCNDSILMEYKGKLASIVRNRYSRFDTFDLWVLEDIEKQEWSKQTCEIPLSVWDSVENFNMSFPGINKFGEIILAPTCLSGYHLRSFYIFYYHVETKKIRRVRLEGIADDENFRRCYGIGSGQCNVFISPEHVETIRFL
Put plainly: split reporter; FBX in pSCYCE (SCFP3A 174-328), ASK in pSCYNE (SCFP3A 1-173), CaMV 35S promoter; Agrobacterium GV3101 infiltrated into Nicotiana tabacum leaves, 28 C for 3 days; fluorescence microscopy.

The chains behind the UniProt entries cited, without tags or fusion partners.
UniProt Q39255: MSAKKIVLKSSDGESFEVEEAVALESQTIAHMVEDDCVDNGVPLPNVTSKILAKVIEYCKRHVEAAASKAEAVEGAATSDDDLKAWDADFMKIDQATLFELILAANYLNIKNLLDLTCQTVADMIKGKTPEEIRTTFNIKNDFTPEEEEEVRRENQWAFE

Assay [2] deals with T2, F-box (FBX) protein At3g03360, BiFC fusion (Arabidopsis thaliana) (UniProt Q84W80).
T2 sequence: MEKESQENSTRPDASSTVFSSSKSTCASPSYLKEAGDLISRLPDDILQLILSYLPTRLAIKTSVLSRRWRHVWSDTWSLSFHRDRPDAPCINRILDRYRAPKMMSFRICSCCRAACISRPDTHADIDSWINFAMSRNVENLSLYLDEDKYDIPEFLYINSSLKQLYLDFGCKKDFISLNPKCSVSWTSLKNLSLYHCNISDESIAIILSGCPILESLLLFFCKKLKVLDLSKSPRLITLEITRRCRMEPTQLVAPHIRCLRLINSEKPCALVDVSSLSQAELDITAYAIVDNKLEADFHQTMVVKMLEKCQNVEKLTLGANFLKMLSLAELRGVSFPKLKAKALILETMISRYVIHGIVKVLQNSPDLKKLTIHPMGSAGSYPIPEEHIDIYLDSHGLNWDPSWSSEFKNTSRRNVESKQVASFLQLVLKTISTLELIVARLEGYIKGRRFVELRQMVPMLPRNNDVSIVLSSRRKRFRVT
The description is as above.

The target in assay [3] is T3, F-box (FBX) protein At5g21040, BiFC fusion (Arabidopsis thaliana) (UniProt Q94AD8).
T3 sequence: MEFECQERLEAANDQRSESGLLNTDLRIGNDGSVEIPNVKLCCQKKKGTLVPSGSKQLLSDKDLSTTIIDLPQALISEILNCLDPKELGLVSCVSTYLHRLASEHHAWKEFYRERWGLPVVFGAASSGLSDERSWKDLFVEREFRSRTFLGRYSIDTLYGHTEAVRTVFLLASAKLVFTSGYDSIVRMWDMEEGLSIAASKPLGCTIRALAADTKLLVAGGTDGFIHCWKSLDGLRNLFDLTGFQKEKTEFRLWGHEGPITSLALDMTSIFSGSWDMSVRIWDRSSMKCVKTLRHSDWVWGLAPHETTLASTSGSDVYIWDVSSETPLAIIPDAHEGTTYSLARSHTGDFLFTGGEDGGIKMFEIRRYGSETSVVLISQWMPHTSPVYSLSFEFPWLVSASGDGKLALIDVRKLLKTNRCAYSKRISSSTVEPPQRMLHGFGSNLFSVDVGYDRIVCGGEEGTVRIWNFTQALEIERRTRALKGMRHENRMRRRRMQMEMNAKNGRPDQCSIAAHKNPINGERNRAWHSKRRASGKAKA
The description is as above.

For assay [4], the target named is T4, F-box (FBX) protein At5g21040 (Arabidopsis thaliana) (UniProt Q94AD8).
T4 sequence: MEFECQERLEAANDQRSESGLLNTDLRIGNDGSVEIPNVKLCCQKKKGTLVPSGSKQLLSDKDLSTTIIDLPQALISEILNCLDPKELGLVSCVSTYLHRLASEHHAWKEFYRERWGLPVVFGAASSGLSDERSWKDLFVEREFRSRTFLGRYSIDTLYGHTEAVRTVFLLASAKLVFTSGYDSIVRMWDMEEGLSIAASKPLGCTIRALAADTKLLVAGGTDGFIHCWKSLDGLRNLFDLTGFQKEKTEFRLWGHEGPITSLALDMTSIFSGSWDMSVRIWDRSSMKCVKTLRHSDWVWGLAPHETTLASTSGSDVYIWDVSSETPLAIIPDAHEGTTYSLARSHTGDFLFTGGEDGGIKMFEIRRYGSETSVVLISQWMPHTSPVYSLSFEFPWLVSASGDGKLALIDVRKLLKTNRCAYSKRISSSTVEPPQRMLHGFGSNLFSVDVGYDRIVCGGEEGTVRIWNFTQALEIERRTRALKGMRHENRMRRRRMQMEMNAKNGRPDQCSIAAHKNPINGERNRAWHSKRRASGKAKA
Put plainly: two-hybrid; FBX fused to Gal4-DB, ASK fused to Gal4-AD; yeast mating; selection on SD without Leu, Trp, His, Ade (high strength) or without Leu, Trp, His (low strength); every combination examined twice.

Assay [5] concerns the target T5, F-box (FBX) protein At3g04660, BiFC fusion (Arabidopsis thaliana) (UniProt Q9SR08).
T5 sequence: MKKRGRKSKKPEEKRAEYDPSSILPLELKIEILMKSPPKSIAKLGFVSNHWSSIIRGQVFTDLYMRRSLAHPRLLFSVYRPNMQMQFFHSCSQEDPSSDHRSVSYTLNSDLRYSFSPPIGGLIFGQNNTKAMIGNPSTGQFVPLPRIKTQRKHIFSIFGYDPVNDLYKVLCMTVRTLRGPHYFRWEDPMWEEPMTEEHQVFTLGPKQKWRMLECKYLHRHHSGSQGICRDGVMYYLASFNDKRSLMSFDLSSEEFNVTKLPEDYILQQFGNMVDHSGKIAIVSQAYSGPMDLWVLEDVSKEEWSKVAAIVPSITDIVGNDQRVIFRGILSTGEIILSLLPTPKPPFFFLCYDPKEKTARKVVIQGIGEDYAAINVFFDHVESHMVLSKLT
Put plainly: split reporter; FBX in pSCYCE (SCFP3A 174-328), ASK in pSCYNE (SCFP3A 1-173), CaMV 35S promoter; Agrobacterium GV3101 infiltrated into Nicotiana tabacum leaves, 28 C for 3 days; fluorescence microscopy.

Drawing on publication PMC3499479, this text covers binding for 14 molecules.

No constants are given. Whether binding was seen depends on the method and setting. For part of these data: Binding seen in cells or lysates may run through a third protein. Some entries that bind do so weakly or less than the wild type. For part of these data: Sequences can lack the tags named with a protein.

With “Arabidopsis SKP1-LIKE 1 (ASK1), BiFC fusion (from UniProt Q39255 1-160)”, the binding entry in assay [1], in assay [2] and in assay [3] was “binds” throughout.

Take “Arabidopsis SKP1-LIKE 1 (ASK1) (from UniProt Q39255 1-160)”: the binding entry in assay [4] is reported as “binds”.

B1: Arabidopsis SKP1-LIKE 14 (ASK14), BiFC fusion (protein, UniProt O81057 1-149)
chain: MSSNKIVLSSSDGESFEVEEAVARKLKIVEHMIEDDCVVTEVPLQNVTGKILSIVVEYCKKHVVDEESDEFKTWDEEFMKKFDQPTVFQLLLAANYLNIKGLLDLSAQTVADRIKDKTPEEIREIFNIENDFTPEEEAAVRKENAWAFE
Regarding B1, the binding entry in assay [1], in assay [2], in assay [5] and in assay [3] was “binds” throughout.

B2: Arabidopsis SKP1-LIKE 3 (ASK3), BiFC fusion (protein, UniProt Q9SL93 1-163)
chain: MAETKKMIILKSSDGESFEVEEAVAVESQTIKHMIEDDCVDNGIPLPNVTGAILAKVIEYCKKHVEAAAEAGGDKDFYGSTENHELKTWDNDFVKVDHPTLFDLLRAANYLNISGLLDLTCKAVADQMRGKTPAQMREHFNIKNDYTPEEEAEVRNENRWAFE
For B2, the binding entry in assay [2] and in assay [5] was “binds” throughout.

B3: Arabidopsis SKP1-LIKE 10 (ASK10), BiFC fusion (protein, UniProt Q9LSX8 1-152)
chain: MSTKKIILKSSDGHSFEVEEEAACQCQTIAHMSEDDCTDNGIPLPEVTGKILEMVIEYCNKHHVDAANPCSDEDLKKWDKEFMEKYQSTIFDLIMAANYLNIKSLLDLACQTVADMIKDNTVEHTRKFFNIENDYTHEEEEAVRRENQWGFE
As for B3, the binding result in assay [1] is reported as “binds”.

B4: Arabidopsis SKP1-LIKE 16 (ASK16), BiFC fusion (protein, UniProt O81055 1-170)
chain: MSSNKIVLTSSDDESFEVEEAVARKLKVIAHMIDDDCADKAIPLENVTGNILALVIEYCKKHVLDDVDDSDDSTEATSENVNEEAKNELRTWDAEFMKEFDMETVMKLILAVNYLNVQDLLGLTCQTVADHMKDMSPEEVRELFNIENDYTPEEEDAIRKENAWAFEDLK
Turning to B4, the binding result in assay [1] and in assay [3] was “binds” in each case.

B5: Arabidopsis SKP1-LIKE 12 (ASK12) (protein, UniProt O65674 1-152)
chain: MSSKMIVLMSSDGQSFEVEEAVAIQSQTIAHMVEDDCVADGIPLANVESKILVKVIEYCKKYHVDEANPISEEDLNKWDEKFMDLEQSTIFELILAANYLNIKSLFDLTCQTVADMIKGKTPEEIRSTFNIENDFTPEEEEAVRKENQWAFE
Regarding B5, the binding entry in assay [4] is listed as “binds”.

B6: Arabidopsis SKP1-LIKE 11 (ASK11), BiFC fusion (protein, UniProt O49484 1-152)
chain: MSSKMIVLMSSDGQSFEVEEAVAIQSQTIAHMVEDDCVADGIPLANVESKILVKVIEYCKKHHVDEANPISEEDLNNWDEKFMDLEQSTIFELILAANYLNIKSLLDLTCQTVADMIKGKTPEEIRSTFNIENDFTPEEEEAVRKENQWAFE
Turning to B6, the binding entry in assay [1] and in assay [3] was “binds” in each case.

B7: Arabidopsis SKP1-LIKE 11 (ASK11) (protein, UniProt O49484 1-152)
chain: MSSKMIVLMSSDGQSFEVEEAVAIQSQTIAHMVEDDCVADGIPLANVESKILVKVIEYCKKHHVDEANPISEEDLNNWDEKFMDLEQSTIFELILAANYLNIKSLLDLTCQTVADMIKGKTPEEIRSTFNIENDFTPEEEEAVRKENQWAFE
On to B7, for which, in assay [4], the binding entry is “binds”.

B8: Arabidopsis SKP1-LIKE 4 (ASK4), BiFC fusion (protein, UniProt Q9LNT9 1-163)
chain: MAETKKMIILKSSDGESFEIEEAVAVKSQTIKHMIEDDCADNGIPLPNVTGAILAKVIEYCKKHVEAAAEAGGDKDFYGSAENDELKNWDSEFVKVDQPTLFDLILAANYLNIGGLLDLTCKAVADQMRGKTPEQMRAHFNIKNDYTPEEEAEVRNENKWAFE
For B8, the binding entry in assay [2], in assay [5] and in assay [3] was “binds” in each case.

B9: Arabidopsis SKP1-LIKE 13 (ASK13), BiFC fusion (protein, UniProt Q9M1X5 1-154)
chain: MSKMVMLLSSDGESFQVEEAVAVQSQTIAHMIEDDCVANGVPIANVTGVILSKVIEYCKKHVVSDSPTEESKDELKKWDAEFMKALEQSSTLFDVMLAANYLNIKDLLDLGCQTVADMITGKKPDEIRALLGIENDFTPEEEEEIRKENQWAFE
Regarding B9, the binding result in assay [5] and in assay [3] was “binds” in each case.

B10: Arabidopsis SKP1-LIKE 18 (ASK18), BiFC fusion (protein, UniProt Q9SY65 1-158)
chain: MSSNKILLTSSDGESFEIDEAVARKFLIIVHMMEDNCAGEAIPLENVTGDILSKIIEYAKMHVNEPSEEDEDEEAKKNLDSWDAKFMEKLDLETIFKIILAANYLNFEGLLGFASQTVADYIKDKTPEEVREIFNIENDFTPEEEEEIRKENAWTFNE
Consider B10, for which the binding entry in assay [5] and in assay [3] was “binds” in each case.

B11: Arabidopsis SKP1-LIKE 19 (ASK19), BiFC fusion (protein, UniProt O81058 1-200)
chain: MSSKKIVLTSSDGESFKVEEVVARKLQIVGHIIEDDCATNKIPIPNVTGEILAKVIEYCKKHVEDDDDVVETHESSTKGDKTVEEAKKKPDDVAVPESTEGDDEAEDKKEKLNEWDAKFMKDFDIKTIFDIILAANYLNVQGLFDLCSKTIADYIKDMTPEEVRELFNIENDFTPEEEEAIRNENAWTFEQDGKQQVPKP
On to B11, for which the binding result in assay [1], in assay [2] and in assay [5] was “binds” throughout.

B12: Arabidopsis SKP1-LIKE 17 (ASK17), BiFC fusion (protein, UniProt Q9SL65 1-150)
chain: MSSKKIVLTSSDDECFEIDEAVARKMQMVAHMIDDDCADKAIRLQNVTGKILAIIIEYCKKHVDDVEAKNEFVTWDAEFVKNIDMDTLFKLLDAADYLIVIGLKNLIAQAIADYTADKTVNEIRELFNIENDYTPEEEEELRKKNEWAFN
With B12, the binding entry in assay [1], in assay [2] and in assay [5] was “binds” each time.
